Reference: PubChem BioAssay AID540276 (National Center for Advancing Translational Sciences (NCATS), 2011)
Out of some 300,000 compounds screened, about 5,400 (1.8%) were called active. Inconclusive means that the source gave no clear call. Such entries were picked first, then a sample of the others. Calls come from the whole dose curve; tested in HEK293 cells. Where the call is inconclusive, the potency comes from a doubtful curve fit.

Experiment: qHTS for inhibitors of binding or entry into cells for Marburg Virus
Settings: Marburg virus pseudotyped entry inhibition, cell reporter; activity change, negative = inhibition: at 37.8 µM (top of the series) unless noted
% is set by controls: 0 for no effect and ±100 for the full control effect; potency is the fitted concentration of half-maximal effect.

Q: With `Cc1nc(CSc2ccccc2)cc(=O)[nH]1` as the molecule, how does the Potency read?
A: The Potency was inconclusive: 32.6 µM [activator, partial curve, poor fit].

Q: With `Cc1nc(N2CCc3ccccc3C2)[nH]c(=O)c1Cc1ccccc1` as the molecule, how does the “activity change, negative = inhibition” value read?
A: The value was inactive: 19.3% [at 46.1 µM].

Q: For `Cc1ccc(C(=O)NNC(=O)Cn2nnc3ccccc32)cc1`, which “activity change, negative = inhibition” value is on record?
A: The value was inactive: 7.43%.

Q: For `CC(=O)Nc1ccc(-c2nnc(SCC(=O)c3ccc4c(c3)Cc3ccccc3-4)n2C)cc1`, which Potency is on record?
A: Its Potency is inconclusive: 29.1 µM [inhibitor, single point].

Q: With `COC(=O)c1ccc(C(=O)N(Cc2ccccc2)c2ccccc2)cc1` as the molecule, how does the “activity change, negative = inhibition” value read?
A: The value was inactive: -27.6% [at 46.1 µM].

Q: For `CC(C)(C)C(=O)Nc1ccc2nc(SCC(=O)N3CCc4ccccc43)sc2c1`, which Potency is on record?
A: The Potency was inconclusive: 11.2 µM [inhibitor, partial curve, poor fit].

Q: For `COc1ccc(CN2CCc3ccc(NC(=O)CCc4ccccc4OC)cc3C2)c(O)c1`, which Potency is on record?
A: The Potency was inconclusive: 11.2 µM [inhibitor, partial curve].

Q: Which “activity change, negative = inhibition” value does the source give for `O=C(COC(=O)/C=C/c1ccc(C(F)(F)F)cc1)NCC1CCCO1` (stereo not given) here?
A: The value was inactive: 12.5%.

Q: For `Clc1cccc(Cl)c1/C=C/c1nc2ccccc2[nH]1`, which Potency is on record?
A: The Potency was inconclusive: 0.82 µM [activator, partial curve].

Q: With `Cc1ccccc1C(=O)NCC(=O)OC(C)C(=O)Nc1cccc(S(=O)(=O)N2CCOCC2)c1` (stereo not given) as the molecule, how does the Potency read?
A: Its Potency is inconclusive: 3.55 µM [activator, single point].

Q: Which “activity change, negative = inhibition” value does the source give for `Cc1ccc(Cn2c(SCC(C)C)nc3c2c(=O)n(C)c(=O)n3C)cc1` here?
A: Its value is inactive: -0.0443%.

Q: With `CCOc1ccc(OCc2ccc(C(=O)N/N=C(\C)c3ccccn3)cc2)cc1` as the molecule, how does the Potency read?
A: Its Potency is active: 7.94 µM.

Q: For `S=c1nccc(-c2ccc(Cl)cc2)[nH]1`, which “activity change, negative = inhibition” value is on record?
A: The value was inactive: 16.4%.

Q: For `CC(C(=O)NC(=O)NCc1ccccc1)N1C(=O)c2ccccc2C1=O` (stereo not given), which Potency is on record?
A: The Potency was inconclusive: 0.794 µM [activator, full curve, poor fit].

Q: For `COc1cccc(C2CC3(CC(C)(C)NC(=S)N3)Oc3cc(O)ccc32)c1` (stereo not given), which “activity change, negative = inhibition” value is on record?
A: Its value is inactive: -21.3%.

Q: For `CCCCCN(C(=O)CCC(=O)OCc1ccccc1C(F)(F)F)c1c(N)n(CCCC)c(=O)[nH]c1=O`, which Potency is on record?
A: Its Potency is inconclusive: 22.4 µM [inhibitor, single point].

Q: For `CCc1nn(CCCC(=O)NCc2cc(Br)ccc2OC)c(=O)c2cc3occc3n12`, which Potency is on record?
A: The Potency was inconclusive: 11.2 µM [inhibitor, partial curve, poor fit].

Q: Which “activity change, negative = inhibition” value does the source give for `COc1cc[n+]([O-])cc1[N+](=O)[O-]` here?
A: Its value is inactive: 7.07% [at 46.1 µM].

Q: For `O=C(CSc1nnc(NC(=O)C2CC2)s1)Nc1ccccc1C(F)(F)F`, which Potency is on record?
A: The Potency was inconclusive: 22.4 µM [inhibitor, single point].

Q: With `CC(C)CC(NC(=O)c1ccc(Cl)cc1)C(=O)O` (stereo not given) as the molecule, how does the Potency read?
A: The Potency was inconclusive: 6.51 µM [inhibitor, single point].

Q: Which Potency does the source give for `O=C(CCl)NC(Cc1ccccc1)c1ccccc1` (stereo not given) here?
A: Its Potency is inconclusive: 35.5 µM [inhibitor, single point].

Q: With `Cc1ccc2nc(-c3ccc4c(c3)OCCO4)cc(C(=O)O)c2c1` as the molecule, how does the Potency read?
A: The Potency was inconclusive: 14.1 µM [inhibitor, partial curve, poor fit].

Q: Which “activity change, negative = inhibition” value does the source give for `NC(=O)COc1cccc2cccnc12` here?
A: Its value is inactive: 5.14%.

Q: Which Potency does the source give for `O=c1[nH]c(=O)n(C2CC(O)C(CO)O2)cc1Br` (stereo not given) here?
A: The Potency was inconclusive: 35.5 µM [activator, partial curve, poor fit].

Q: With `C/C(=N/Nc1ccc(C(=O)c2c(C)cc3ccccn23)cc1[N+](=O)[O-])c1ccc(O)cc1` as the molecule, how does the “activity change, negative = inhibition” value read?
A: Its value is inactive: -8.38% [at 46.1 µM].

Q: For `C#CCOCCOCCOCCNc1nc(N2CCN(C(=O)Cn3cc(CC(C)O)nn3)CC2)nc(N2CCN(C(=O)[C@H](CCCCN)n3cc(CCC(=O)O)nn3)CC2)n1` (stereo not given in full), which “activity change, negative = inhibition” value is on record?
A: The value was inactive: 4.45%.

Q: With `O=C1/C(=C/c2ccc([N+](=O)[O-])cc2)CCC1C1CCCC1` (stereo not given) as the molecule, how does the Potency read?
A: Its Potency is inconclusive: 1 µM [activator, full curve, poor fit].

Q: Which “activity change, negative = inhibition” value does the source give for `CCOc1ccc(NC(=O)c2cc3cc4cc(OC)ccc4nc3s2)cc1` here?
A: Its value is inactive: -18.1% [at 46.1 µM].

Q: Which Potency does the source give for `COc1nccnc1NS(=O)(=O)c1ccc(NC(=O)c2cccc(C)c2)cc1` here?
A: Its Potency is inconclusive: 3.16 µM [inhibitor, single point].

Q: With `S=c1[nH]nc(COc2ccccc2)n1/N=C/c1cccnc1` as the molecule, how does the “activity change, negative = inhibition” value read?
A: Its value is inactive: -6.66%.

Q: With `O=C(c1ccccc1Cc1ccccc1)N1CCN(S(=O)(=O)c2ccccc2[N+](=O)[O-])CC1` as the molecule, how does the Potency read?
A: Its Potency is inconclusive: 8.91 µM [inhibitor, partial curve, poor fit].

Q: For `O=C(Cc1ccc([N+](=O)[O-])cc1)Nc1ccc(O)cc1C(=O)O`, which Potency is on record?
A: The Potency was inconclusive: 0.794 µM [activator, partial curve, poor fit].

Q: For `CCCCc1oc2c(c(=O)c1C)C(=O)CC(c1ccccc1)C2` (stereo not given), which Potency is on record?
A: The Potency was inconclusive: 29.1 µM [inhibitor, single point].

Q: Which Potency does the source give for `Cc1ccc(CNC(=O)c2cc(=O)c3cc(C)cc(C)c3o2)cc1` here?
A: Its Potency is inconclusive: 6.31 µM [activator, single point].

Q: Which Potency does the source give for `O=CN1CCN(c2ncnc3c2nnn3Cc2c(F)cccc2Cl)CC1` here?
A: The Potency was inconclusive: 2.24 µM [inhibitor, partial curve, poor fit].

Q: Which Potency does the source give for `COc1ccccc1Nc1nc(N)nc(CN2CCN(Cc3ccccc3)CC2)n1` here?
A: Its Potency is inconclusive: 8.2 µM [activator, partial curve, poor fit].

Q: Which “activity change, negative = inhibition” value does the source give for `CC(=C/c1ccc(C(C)C)cc1)/C=N/NC(=O)Cn1nc(C)cc1C` here?
A: The value was inactive: 3.78%.

Q: With `CCc1cccc(C)c1NC(=O)Cn1cc2c(n1)CCCCC2` as the molecule, how does the “activity change, negative = inhibition” value read?
A: The value was inactive: -2.68% [at 46.1 µM].

Q: With `Cc1ccccc1CN(C)Cc1cc(=O)oc2c(C)c(C)ccc12` as the molecule, how does the Potency read?
A: The Potency was active: 3.98 µM.

Q: With `COc1cccc(NC(=O)c2cnc(SC)nc2)c1` as the molecule, how does the Potency read?
A: Its Potency is inconclusive: 22.4 µM [activator, partial curve, poor fit].

Q: Which Potency does the source give for `CC(CNC(=S)Nc1cc(F)cc(F)c1)CSc1ccc(Cl)cc1` (stereo not given) here?
A: Its Potency is inconclusive: 28.2 µM [inhibitor, single point].

Q: For `N#Cc1cnc(N)c(Br)c1`, which “activity change, negative = inhibition” value is on record?
A: The value was inactive: -16.8% [at 46.1 µM].

Q: For `CCCOc1ccc(C(=O)CCN2CCCCC2)cc1`, which Potency is on record?
A: The Potency was inconclusive: 11.2 µM [inhibitor, single point].

Q: For `CCCC(=O)N/C(N)=N/c1nc(C)c2ccccc2n1`, which Potency is on record?
A: Its Potency is inconclusive: 35.5 µM [inhibitor, single point].

Q: With `O=C(CSc1n[nH]c(-c2ccccc2Br)n1)NCCN1C(=O)CSC1=O` as the molecule, how does the Potency read?
A: Its Potency is inconclusive: 1.12 µM [activator, single point].
